# According to PubChem BioAssay AID2685 (National Center for Advancing Translational Sciences (NCATS), 2010):
# This is one part of the list. The main result of the screen is listed elsewhere. These columns were measured beside it and carry no call. Most of these compounds were active or inconclusive in the main read-out, so they are no random draw. Words in brackets tell the shape of the fitted curve; partial curves, single points and poor fits give uncertain potencies.
# Test: qHTS Assay for Lipid Storage Modulators in Drosophila S3 Cells;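 as to cell number change: cells counted by Cell Tracker Red CMTPX staining in the red channel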
# Conditions: BODIPY lipid droplet fluorescence, 18-24 h; for cell number change: measured here: cell count max response, cells fed with added oleic acid
# Outline: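 Laser-scanning cytometry quantifies lipid droplet accumulation (500–530 nm total intensity; droplet/cell object ratio) in oleic acid-fed (400 uM added) Drosophila S3 cells treated with a concentration series. 20 uM Triacsin C defined 100% inhibition.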
# [1] = measured here: cell number channel AC50, cells fed with added oleic acid
# [2] = measured here: lipid fluorescence (Fed channel) AC50, cells fed with added oleic acid
Structure (SMILES),cell number change [%],AC50 [1],AC50 [2]
Cc1ccc(C)c(NC(=O)COC(=O)c2ccc3ccccc3n2)c1,-31.8,"20.6 µM [falling, single point]",–
Cc1ccc(S(=O)(=O)N2CCOCC2)cc1NC(=O)COc1ccc(C(=O)c2ccccc2)cc1,–,–,"3.66 µM [falling, partial curve]"
CC(=O)Nc1cccc(C(=O)OC(C)C(=O)NCc2ccc3c(c2)OCO3)c1 (stereo not drawn),6.62,–,"29.1 µM [falling, single point]"
NC1=NC[C@H](Cc2ccccc2)N1CCCCC1CCCCC1,-63.5,"32.6 µM [falling, single point]","13 µM [falling, partial curve]"
CC(=O)Nc1ccc(-c2cc(C(=O)O)c3ccccc3n2)cc1,–,"0.92 µM [falling, single point]",–
Cc1c(S(=O)(=O)N2CCCC(C)C2)c(=O)n(C)c(=O)n1C (stereo not drawn),-6.87,"0.651 µM [falling, single point]","16.4 µM [falling, partial curve, poor fit]"
COc1cc(CNC(=O)CCn2nc(C)c3c(C)n(-c4ccccc4)nc3c2=O)cc(OC)c1OC,-31.4,"29.1 µM [falling, single point]",–
COc1ccc(CNC(=O)Cc2cccs2)cc1,-3.04,–,"6.51 µM [rising, single point]"
Cn1nc(-c2ccccc2)c2cc(C(=O)O)sc21,7.17,–,"0.116 µM [falling, full curve, poor fit]"
CCN(CC(=O)Nc1c(F)cccc1F)C(=O)C1CC(=O)N(CCc2ccccc2)C1 (stereo not drawn),18.3,–,"7.31 µM [rising, partial curve, poor fit]"
COC(=O)c1ccc(C2NC(=O)NC(C)=C2C(=O)N(C)C)cc1 (stereo not drawn),-16,–,"25.9 µM [falling, partial curve]"
O=C(CSCc1c(Cl)cccc1Cl)NN1C(=O)c2ccccc2C1=O,-1.2,–,"29.1 µM [rising, single point]"
Cc1[nH]c2ccccc2c1C(=O)Cn1c(=O)oc2ccccc21,18.5,–,"5.8 µM [rising, single point]"
Cc1csc(SCc2ccc(C(=O)O)cc2)n1,2.9,–,–
Cn1c(CNS(=O)(=O)c2ccc(F)cc2)n[nH]c1=S,-4.9,–,–
CC(=O)N/N=C(\C)C1COc2ccccc2O1 (stereo not drawn),8.52,–,–
O=C(Nc1cccc(S(=O)(=O)NC2=NCCCCC2)c1)c1ccc(Cl)cc1,–,–,"14.6 µM [falling, single point]"
C/C(=N\O)C(=O)NCCN1CCCCC1,-32.7,"25.9 µM [falling, single point]","10.3 µM [falling, partial curve]"
Cc1cc(NC(=O)c2cccs2)no1,19,–,"7.31 µM [rising, partial curve, poor fit]"
Cc1ccccc1C(=O)Nc1nnc(-c2cccnc2)o1,-15.7,"0.731 µM [falling, partial curve, poor fit]","0.651 µM [falling, single point]"

# Among those listed so far, 2 contain an aryl methoxy group:
Structure (SMILES),cell number change [%],AC50 [1],AC50 [2]
COc1cc(CNC(=O)CCn2nc(C)c3c(C)n(-c4ccccc4)nc3c2=O)cc(OC)c1OC,-31.4,"29.1 µM [falling, single point]",–
COc1ccc(CNC(=O)Cc2cccs2)cc1,-3.04,–,"6.51 µM [rising, single point]"

# Next part

Structure (SMILES),cell number change [%],AC50 [1],AC50 [2]
O=C(Nc1cnc2sccn2c1=O)c1ccccc1Cl,-22.2,"0.231 µM [falling, full curve, poor fit]",–
NNc1ncnc2scc(-c3ccc(Cl)cc3)c12,34.2,"3.26 µM [rising, partial curve]","4.11 µM [rising, partial curve]"
S=c1nn[nH]n1C12CC3CC(CC(C3)C1)C2,-4.82,–,–
O=c1[nH]c2ccccc2cc1CN(Cc1ccco1)S(=O)(=O)c1ccc(F)cc1,-24.5,–,"32.6 µM [falling, partial curve, poor fit]"
CCOc1ccc(Cc2nnc(N)s2)cc1OCC,98,"9.2 µM [rising, partial curve]","3.66 µM [rising, partial curve]"
COc1cccc(/C=N/n2cnc3ccccc32)c1OC,65.4,"1.16 µM [rising, full curve]","1.46 µM [rising, partial curve]"
COc1ccc(C(=O)NCCN=C2NS(=O)(=O)c3ccccc32)cc1,-14.5,–,"0.398 µM [falling, single point]"
COCCn1c(=NC(=O)c2ccc(S(=O)(=O)N3CCOCC3)cc2)sc2cc(S(N)(=O)=O)ccc21,-37.7,"10.3 µM [falling, partial curve]",–
COc1cccc(-c2ncc3ccccc3c2COC(=O)N2CCOCC2)c1,-12,–,"0.116 µM [rising, full curve]"
CS(=O)(=O)N(CC(=O)Nc1ccccc1C(=O)NCc1ccco1)c1ccc2c(c1)OCCO2,–,"1.16 µM [rising, partial curve]",–
Cc1cc(C(=O)OCC(=O)N2CC(=O)Nc3ccccc32)no1,-9.38,–,"5.17 µM [falling, full curve, poor fit]"
Cc1cccc2sc(NC(=O)C3CC3)nc12,-9.47,–,–
O=C(c1ccc2nc(Cc3ccccc3F)oc2c1)N1CCCC1,-9.97,–,"0.00517 µM [falling, full curve, poor fit]"
Cc1cccc(N(C)S(=O)(=O)c2c(C)[nH]c(C)c2C(=O)N2CCCC2)c1,–,–,"29.1 µM [falling, single point]"
Cc1noc(C)c1S(=O)(=O)N1CCCC(C(=O)Nc2ccc(Cl)cn2)C1 (stereo not drawn),-1.36,–,"7.31 µM [falling, single point]"
CCOc1ccc(N(CC(=O)NC2CC2)S(=O)(=O)c2ccc(C)cc2)cc1,22.6,–,–
COc1cc(OC)c(C(=O)OCC(=O)N2CCOCC2)cc1OC,–,–,"0.231 µM [falling, full curve, poor fit]"
Cc1ccc(NC(=O)Cc2nc(COC(=O)Cc3cccc(C(F)(F)F)c3)cs2)cc1,-8.08,"0.116 µM [falling, full curve, poor fit]",–
COCCN(C(=O)C1CC(=O)N(Cc2ccccc2)C1)c1nc(-c2ccc([N+](=O)[O-])cc2)cs1 (stereo not drawn),-5.33,–,"14.6 µM [falling, partial curve]"
